Test results reported in article PMC6396024, “Artemin and an Artemin-Derived Peptide, Artefin, Induce Neuronal Survival, and Differentiation Through Ret and NCAM” (Frontiers in Molecular Neuroscience, 2019).
No constants are given. Whether binding was seen depends on the method and setting. Some results given as binding are weak or reduced against the parent protein; the word gives no strength. Where a sequence is shown, tags or fusion partners need not be part of it.

Assays:
GFRa2/Fc = molecular target: T1, GFRa2/Fc (UniProt O00451); assay: SPR; reverse binding experiment: GFRa1/Fc and GFRa2/Fc (0.113 μM) immobilised on a CM4 chip; artefin (15.6 μM) injected; Biacore 2000, 25°C, HBS-EP; both purified
T1 sequence: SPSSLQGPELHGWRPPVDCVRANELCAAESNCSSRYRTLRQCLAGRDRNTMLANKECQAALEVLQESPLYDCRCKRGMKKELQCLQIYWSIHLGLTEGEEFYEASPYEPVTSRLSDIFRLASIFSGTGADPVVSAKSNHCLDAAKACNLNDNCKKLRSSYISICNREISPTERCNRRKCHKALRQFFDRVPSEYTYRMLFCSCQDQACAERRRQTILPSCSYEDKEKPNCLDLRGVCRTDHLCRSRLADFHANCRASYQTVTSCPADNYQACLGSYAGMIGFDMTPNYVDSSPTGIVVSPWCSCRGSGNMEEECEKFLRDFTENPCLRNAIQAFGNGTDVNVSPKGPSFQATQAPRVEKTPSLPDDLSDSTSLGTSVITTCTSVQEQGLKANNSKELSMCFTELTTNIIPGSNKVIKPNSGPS

GFRa1/Fc = molecular target: T2, GFRa1/Fc (UniProt P56159); assay: as above
T2 sequence: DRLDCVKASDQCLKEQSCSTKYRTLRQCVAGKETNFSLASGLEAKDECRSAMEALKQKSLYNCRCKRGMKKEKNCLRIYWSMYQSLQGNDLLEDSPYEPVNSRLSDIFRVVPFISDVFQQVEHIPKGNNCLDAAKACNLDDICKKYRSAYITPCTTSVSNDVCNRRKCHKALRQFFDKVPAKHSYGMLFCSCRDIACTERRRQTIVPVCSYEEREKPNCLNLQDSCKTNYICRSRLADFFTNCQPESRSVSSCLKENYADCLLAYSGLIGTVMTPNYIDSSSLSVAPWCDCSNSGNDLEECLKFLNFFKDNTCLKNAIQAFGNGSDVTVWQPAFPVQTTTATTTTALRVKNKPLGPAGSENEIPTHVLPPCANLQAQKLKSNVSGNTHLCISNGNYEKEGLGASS

binding (GFRa2/Fc): binds
binding (GFRa1/Fc): binds
Binder: RSPHDLSLASLLGAG (four monomers coupled to a lysine backbone (tetramer)) [artefin, ARTN-derived peptide synthesized as a tetramer (dendrimer) on a lysine backbone]
